Test results: the supplement of paper PMC3334620
The full ranking holds about 33,000 sequences; the median of “E-score (-0.5 to 0.5)” is about -0.0014, and the highest 2% start at about 0.25. Some of the results follow.

What follows are sequences tested against T1, Cad1 (UniProt P24813) (assay: PBM E-score (8-mer binding enrichment) (E-score (-0.5 to 0.5)); higher = stronger / more preferred TF binding). Details: protein concentration: 100 nM; construct: GST-full length.
T1 sequence: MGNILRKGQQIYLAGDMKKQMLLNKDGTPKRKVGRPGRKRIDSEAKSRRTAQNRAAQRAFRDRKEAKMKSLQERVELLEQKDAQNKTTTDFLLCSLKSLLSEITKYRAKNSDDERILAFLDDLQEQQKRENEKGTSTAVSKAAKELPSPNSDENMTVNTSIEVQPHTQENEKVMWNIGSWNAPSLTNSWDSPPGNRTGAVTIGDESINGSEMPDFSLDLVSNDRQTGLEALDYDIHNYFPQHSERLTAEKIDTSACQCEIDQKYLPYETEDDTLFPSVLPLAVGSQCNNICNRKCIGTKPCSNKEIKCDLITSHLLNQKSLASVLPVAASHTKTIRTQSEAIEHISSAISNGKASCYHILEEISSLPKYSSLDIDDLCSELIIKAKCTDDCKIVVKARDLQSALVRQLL
In short: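 Detection of bound protein used fluorescent anti-GST, with scans normalised by masliner. The proteins were GST-tagged yeast transcription factors applied at about 100-200 nM to universal all-10-mer Agilent arrays made double-stranded by primer extension. Each ungapped eight-base word, pooled with its reverse complement, was scored with an E-score from the Universal PBM Analysis Suite.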

| Sequence | PBM E-score |
| --- | --- |
| CGAGAACC | 0.0726 |
| CCCCTAGG | -0.188 |
| CGAGATAA | 0.227 |
| ATAGGTGC | -0.0209 |
| TCGTAGAA | -0.121 |
| CATTACAG | 0.0228 |
| AGGCATAG | -0.0101 |
| CCCCGGCA | -0.278 |
| AGCACCTA | 0.00318 |
| CATGACGG | -0.0626 |
| GGGGTGTA | -0.142 |
| CGCCATCA | -0.0887 |
| CGGGTTAA | 0.00237 |
| AAAAGGGG | -0.378 |
| GGAAATAA | 0.184 |
| ATCTTCGC | 0.223 |
| ATACAGTC | -0.167 |
| ACTGTATC | -0.17 |
| AACGCACC | -0.0282 |
| ATGGAATG | -0.0835 |
| TATCCAGA | -0.0239 |
| CCGGGCCG | -0.224 |
| CACCTTAC | -0.0464 |
| AGGCTCTG | -0.151 |

Quoted at random: 2 entries already listed, in no set order.

| Sequence | PBM E-score |
| --- | --- |
| ACTGTATC | -0.17 |
| CCCCTAGG | -0.188 |

Next part

| Sequence | PBM E-score |
| --- | --- |
| TAGAAGGA | -0.272 |
| AACAGAAC | 0.0478 |
| TCAACTGA | -0.0367 |
| AAATGGTG | 0.121 |
| AGGATAGC | 0.0152 |
| ACCGTCTG | -0.277 |
| ACACATGA | 0.0839 |
| ATTGATTC | 0.12 |
| ATAGCGTG | 0.00349 |
| AATGCCAT | 0.0555 |
| AACCGGTT | 0.171 |
| TCCGCCGA | 0.0492 |
| AGAATTAA | -0.0362 |
| AAGCAGCC | -0.15 |
| GGAAACGA | -0.0178 |
| GCAGGTCA | -0.154 |
| CAGGTCAG | -0.0942 |
| ACACAGAA | 0.136 |
| AACCGGGT | -0.0963 |
| AAGAACCT | -0.0301 |
| CCCGAGCG | -0.0673 |
| ACGGCAAC | 0.0739 |
| GATTATGC | 0.0629 |
| GATATAAA | 0.0282 |

| Sequence | PBM E-score |
| --- | --- |
| ACCCTTGC | 0.011 |
| ACACCACA | 0.123 |
| AGGCTTTC | -0.0233 |
| ACAACTTG | 0.0391 |
| CGTTGAGA | 0.0319 |
| CCTAATGA | -0.0824 |
| ACTATTGG | 0.025 |
| CTATGTCA | 0.0433 |
| AGAGTGAC | -0.21 |
| GTAATTAA | 0.218 |
| GGTATCTA | 0.0847 |
| CTAACGTA | 0.0589 |
| ACGCTCTC | -0.059 |
| TCATATGA | 0.321 |
| AAATAGGT | 0.00789 |
| ACCTGAAG | -0.0272 |
| GCGGACGA | 0.0719 |
| AGCGCGTA | 0.284 |
| AGTAAACT | 0.105 |
| AATGTTCT | 0.00438 |
| AGAGCATG | -0.238 |
| ATCCCGAA | 0.13 |
| TAAATTGA | 0.0565 |
| TGCATACA | 0.0433 |

| Sequence | PBM E-score |
| --- | --- |
| CGGTACTA | -0.146 |
| GTAGTCTA | 0.0399 |
| CTACTAAG | 0.0237 |
| CCGCAACC | -0.00848 |
| AGAGGGAA | -0.245 |
| AATCGTTG | 0.051 |
| CGGCAGAG | -0.222 |
| CACTGAGA | -0.0901 |
| AAATGAGA | -0.00083 |
| ACACATTC | 0.0444 |
| AAGTCATG | 0.0989 |
| CTCTAAAC | 0.0573 |
| GCGAGCAA | 0.0779 |
| CTGGCCAG | -0.159 |
| GGATGATA | 0.0541 |
| AACTCTAA | 0.0616 |
| TCACCAAA | 0.00021 |
| CTTTTAGC | -0.0466 |
| CGTTGAAA | 0.0198 |
| ACGAGATG | -0.0532 |
| GCGTAAAA | 0.117 |
| ATGCGATG | -0.0935 |
